These are yes or no findings as the source states them, for the method shown. In cells and extracts the contact can be indirect. Some binding calls cover weakened binding; strength is not graded here.
Columns and labels:
[1] = target: MKK7 (full length MKK7 expressed from the pGST vector in HEK293T cells) (human) (UniProt O14733); experiment: GST pull-down, Western blot (legend of FIG. 10B)
[2] = target: PP2Ac (Protein Phosphatase 2Ac) expressed from the pGST (pEBG) vector in HEK293T cells (human) (UniProt P67775); experiment: GST pull-down from HEK293T lysate after PP2Ac over-expression, Western blot
[3] = target: MKK7 (full length MKK7 expressed from the pGST vector in HEK293T cells) (human) (UniProt O14733); experiment: GST pull-down from HEK293T lysate after MKK7 over-expression
[4] = target: MKK7 (full length MKK7 expressed from the pGST vector in HEK293T cells) (human) (UniProt O14733); experiment: GST pull-down from HEK293T lysate, Western blot
[5] = target: PP2Ac (Protein Phosphatase 2Ac) expressed from the pGST (pEBG) vector in HEK293T cells (human) (UniProt P67775); experiment: GST pull-down, Western blot (legend of FIG. 10A)
[6] = target: MKK7 (full length MKK7 expressed from the pGST vector in HEK293T cells) (human) (UniProt O14733); experiment: GST pull-down after MKK7 over-expression (legend of FIG. 11A)
[7] = target: PP2Ac (Protein Phosphatase 2Ac) expressed from the pGST (pEBG) vector in HEK293T cells (human) (UniProt P67775); experiment: GST pull-down from transfected HEK293T lysate, Western blot
[8] = target: PP2Ac (Protein Phosphatase 2Ac) expressed from the pGST (pEBG) vector in HEK293T cells (human) (UniProt P67775); experiment: GST pull-down from transfected HEK293T lysate, Western blot (FIG. 10B)
[9] = target: MKK7 (full length MKK7 expressed from the pGST vector in HEK293T cells) (human) (UniProt O14733); experiment: as above
[10] = target: PP2Ac recombination protein from pET21-PP2Ac, made in E. coli BL21 (human) (UniProt P67775); experiment: in vitro GST pull-down of recombinant proteins (legend of FIG. 11C)
[11] = target: MKK7 recombination protein from pET21-MKK7, made in E. coli BL21 (human) (UniProt O14733); experiment: as above
[12] = target: PP2Ac recombination protein from pET21-PP2Ac, made in E. coli BL21 (human) (UniProt P67775); experiment: in vitro GST pull-down, recombinant proteins from E. coli at 1:1 ratio
[13] = target: MKK7 recombination protein from pET21-MKK7, made in E. coli BL21 (human) (UniProt O14733); experiment: as above

Amino acid sequences for entries named in this document (tags omitted). A change or cut given only in a name is not applied to a line headed by its entry.
UniProt O14733: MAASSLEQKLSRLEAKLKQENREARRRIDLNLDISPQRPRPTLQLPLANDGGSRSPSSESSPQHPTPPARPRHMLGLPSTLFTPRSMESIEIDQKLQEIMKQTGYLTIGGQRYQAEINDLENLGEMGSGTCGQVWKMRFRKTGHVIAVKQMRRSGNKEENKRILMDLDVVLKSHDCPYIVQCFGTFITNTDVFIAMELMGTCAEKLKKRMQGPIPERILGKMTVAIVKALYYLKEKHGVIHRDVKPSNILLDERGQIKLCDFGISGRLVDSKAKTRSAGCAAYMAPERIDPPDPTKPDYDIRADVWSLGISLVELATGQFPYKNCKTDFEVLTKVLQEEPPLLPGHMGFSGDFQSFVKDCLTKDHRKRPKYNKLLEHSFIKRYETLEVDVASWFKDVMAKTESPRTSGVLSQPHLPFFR
UniProt P67775: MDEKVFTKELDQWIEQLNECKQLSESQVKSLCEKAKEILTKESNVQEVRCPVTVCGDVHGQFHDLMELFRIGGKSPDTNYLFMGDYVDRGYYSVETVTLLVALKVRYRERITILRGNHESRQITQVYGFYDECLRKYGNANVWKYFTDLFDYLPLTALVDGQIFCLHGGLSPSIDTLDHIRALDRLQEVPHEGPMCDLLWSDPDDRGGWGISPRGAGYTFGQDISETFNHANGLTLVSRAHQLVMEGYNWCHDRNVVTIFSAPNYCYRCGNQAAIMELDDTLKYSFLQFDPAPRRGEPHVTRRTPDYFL

Measured: binding

B1: TIP41 (full length TIP41 protein expressed from the pHA vector in HEK293T cells) (protein, not shown: small tags and cut ends)
chain: MMIHGFQSSHRDFCFGPWKLTASKTHIMKSADVEKLADELHMPSLPEMMFGDNVLRIQHGSGFGIEFNATDALRCVNNYQGMLKVACAEEWQESRTEGEHSKEVIKPYDWTYTTDYKGTLLGESLKLKVVPTTDHIDTEKLKAREQIKFFEEVLLFEDELHDHGVSSLSVKIRVMPSSFFLLLRFFLRIDGVLIRMNDTRLYHEADKTYMLREYTSRESKISSLMHVPPSLFTEPNEISQYLPIKEAVCEKLIFPERIDPNPADSQKSTQVE
not listed: [10] | [11] | [12] | [13]
binds: all other assays above

B2: TIP41 recombination protein from pGEX4T-TIP41, made in E. coli BL21 (protein, not shown: a dimerising Fc or GST)
chain: B1 chain
binds: [10] | [11] | [12] | [13]
